Data taken from PMC10722540, “Red Wine Inspired Chemistry: Hemisynthesis of Procyanidin Analogs and Determination of Their Protein Precipitation Capacity, Octanol–Water Partition, and Stability in Phosphate-Buffered Saline” (Journal of Agricultural and Food Chemistry, 2023).

Experiment: Octanol–water partition, shake-flask method
Type: physicochemical
Settings: sum of areas in both phases / area of initial water phase; SE in parentheses
Description: The shake-flask method was done using 2 mL Eppendorf tubes and three replicates. […] After mixing, aliquots of 500 μL were transferred to new Eppendorf tubes, and 500 μL of n-octanol was added that had been saturated with water. The solvent systems were mixed in a vortex mixer for 2 h, and then both the water and the n-octanol layers as well as the initial water solution were analyzed by UPLC–DAD using the shorter phenyl column (section 2.4). The chromatograms were integrated using TargetLynx software (version 4.2), and the octanol–water partition coefficient, log P, was calculated as the log10 of the ratio of area in n-octanol phase to the area in water phase. Recovery % was calculated by summing the areas in both phases and dividing the summation with the area measured from the initial water phase.

Structure (SMILES)	recovery (%)
Oc1ccc([C@H]2Oc3c(Cc4c(O)cc(O)c5c4O[C@H](c4ccc(O)c(O)c4)[C@@H](O)C5)c(O)cc(O)c3C[C@@H]2O)cc1O [Compound 1]	94.7 (0.6) %
Oc1ccc([C@H]2Oc3c(Cc4c(O)cc(O)c5c4O[C@H](c4ccc(O)c(O)c4)[C@H](O)C5)c(O)cc(O)c3C[C@H]2O)cc1O [Compound 2, Epicatechin–methylene–epicatechin]	95.9 (0.7) %
O=C(O)C(c1c(O)cc(O)c2c1O[C@H](c1ccc(O)c(O)c1)[C@@H](O)C2)c1c(O)cc(O)c2c1O[C@H](c1ccc(O)c(O)c1)[C@@H](O)C2 [Compound 3]	97.6 (0.2) %
O=C(O)C(c1c(O)cc(O)c2c1O[C@H](c1ccc(O)c(O)c1)[C@H](O)C2)c1c(O)cc(O)c2c1O[C@H](c1ccc(O)c(O)c1)[C@H](O)C2 [Compound 4, Epicatechin–carboxymethine–epicatechin]	97.7 (0.0) %
Oc1ccc([C@H]2Oc3c(c(O)cc(O)c3C(c3ccco3)c3c(O)cc(O)c4c3O[C@H](c3ccc(O)c(O)c3)[C@@H](O)C4)C[C@@H]2O)cc1O [Compound 5, Catechin–furanmethine–catechin]	90.9 (0.8) %
Oc1ccc([C@H]2Oc3c(c(O)cc(O)c3C(c3ccco3)c3c(O)cc(O)c4c3O[C@H](c3ccc(O)c(O)c3)[C@H](O)C4)C[C@H]2O)cc1O [Compound 6, Epicatechin–furanmethine–epicatechin]	94.6 (0.3) %
Oc1ccc(C(c2c(O)cc(O)c3c2O[C@H](c2ccc(O)c(O)c2)[C@@H](O)C3)c2c(O)cc(O)c3c2O[C@H](c2ccc(O)c(O)c2)[C@@H](O)C3)cc1O [Compound 7, Catechin–catecholmethine–catechin]	96.9 (0.4) %
Oc1ccc(C(c2c(O)cc(O)c3c2O[C@H](c2ccc(O)c(O)c2)[C@H](O)C3)c2c(O)cc(O)c3c2O[C@H](c2ccc(O)c(O)c2)[C@H](O)C3)cc1O [Compound 8, Epicatechin–catecholmethine–epicatechin]	96.4 (0.4) %
Oc1cc(O)c2c(c1)O[C@H](c1ccc(O)c(O)c1)[C@@H](O)[C@@H]2c1c(O)cc(O)c2c1O[C@H](c1ccc(O)c(O)c1)[C@@H](O)C2 [Compound 11, PC B3, reference compound]	97.4 (0.1) %
Oc1cc(O)c2c(c1)O[C@H](c1ccc(O)c(O)c1)[C@H](O)[C@H]2c1c(O)cc(O)c2c1O[C@H](c1ccc(O)c(O)c1)[C@H](O)C2 [Compound 12, PC B2, reference compound]	94.3 (0.6) %
Oc1cc(O)c2c(c1)O[C@H](c1ccc(O)c(O)c1)[C@H](O)[C@H]2c1c(O)cc(O)c2c1O[C@H](c1ccc(O)c(O)c1)[C@H](O)[C@H]2c1c(O)cc(O)c2c1O[C@H](c1ccc(O)c(O)c1)[C@H](O)C2 [Compound 13, PC C1, reference compound]	97.6 (0.0) %
O=C(O[C@@H]1Cc2c(O)cc(O)cc2O[C@@H]1c1cc(O)c(O)c(O)c1)c1cc(O)c(O)c(O)c1 [Compound 14, Epigallocatechin-3-gallate, reference compound]	94.3 (0.6) %

Same assay, conditions: tentative values, experiment shorter than two hours because the compounds degraded

Structure (SMILES)	recovery (%)
Oc1ccc([C@H]2Oc3c(c(O)cc(O)c3C(c3cc(O)c(O)c(O)c3)c3c(O)cc(O)c4c3O[C@H](c3ccc(O)c(O)c3)[C@@H](O)C4)C[C@@H]2O)cc1O [Compound 9]	99.4 (1.2) %
Oc1ccc([C@H]2Oc3c(c(O)cc(O)c3C(c3cc(O)c(O)c(O)c3)c3c(O)cc(O)c4c3O[C@H](c3ccc(O)c(O)c3)[C@H](O)C4)C[C@H]2O)cc1O [Compound 10]	107.3 (0.7) %
